The structures appear in SMILES notation. The list shows a part of the results. Further columns of the screen follow, without active or inactive calls. Most of these compounds were active or inconclusive in the main read-out, so they are no random draw. The note in brackets gives the kind of curve behind each potency; many fits are weak.

This assay in a line: qHTS Assay for Lipid Storage Modulators in Drosophila S3 Cells.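 For cell number change: cells counted by Cell Tracker Red CMTPX staining in the red channel.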 The settings on record: BODIPY lipid droplet fluorescence, 18-24 h; for cell number change: measured here: cell count max response, cells fed with added oleic acid. The method in brief: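 Laser-scanning cytometry quantifies lipid droplet accumulation (500–530 nm total intensity; droplet/cell object ratio) in oleic acid-fed (400 uM added) Drosophila S3 cells treated with a concentration series. 20 uM Triacsin C defined 100% inhibition.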
(In general: qHTS replaces the single test concentration by a dilution series.)

Setting [1] is: measured here: cell number channel AC50, cells fed with added oleic acid.
The mark [2] stands for this setting: measured here: lipid fluorescence (Fed channel) AC50, cells fed with added oleic acid.

`Nc1nc(SCCC(F)=C(F)F)n[nH]1`: the cell number change is -18.4%.

Broadly, the AC50 is the midpoint of the concentration-response curve, whichever way the signal moves. Low values mean greater potency, high ones weaker potency. Consider `O=C1NC(=S)N(c2ccc(Br)cc2)C(=O)/C1=C/N1CCN(C(=O)c2ccco2)CC1`, for which the cell number change worked out at 78.7%. Also, the AC50 under setting [1] was 18.4 µM [rising, single point].

On to `C/C(=N\N1CCCCC1)c1c(O)[nH]c(=O)[nH]c1=O`, for which the cell number change was 12.9%.

For the compound `N#CCCn1cc(C(=O)Nc2ccccc2Cl)c(-c2ccc([N+](=O)[O-])cc2)n1`, the cell number change came out at 3.75%. For the same compound, the AC50 under setting [2] is 6.51 µM [rising, single point].

With `CCN1CCN(Cc2ccccc2C)CC1`, the cell number change was -27.2%. For the same compound, under setting [2], the AC50 is 29.1 µM [falling, single point].

With `BrCCc1ccccc1`, the cell number change amounted to 1.16%.

For `N#Cc1ccc(Cn2cc(C(=O)c3ccco3)c3ccccc32)cc1`, the cell number change is -16.9%. Besides, the AC50 under setting [2] was 29.1 µM [falling, single point].

Take `Cn1c2ccccc2c2c(C(=O)N3CCC4(CC3)OCCO4)cn(C3CCCCC3)c(=O)c21`: the cell number change stood at 130%. Further, the concentration at half-maximal activity (AC50) under setting [1] was 10.3 µM [rising, partial curve].

As to `C#C[C@@]1(O)CCC2C3CCC4=C/C(=N/OCC(=O)NC(CCC(N)=O)C(=O)O)CC[C@]4(C)C3CC[C@@]21C` (some centres undefined), the concentration at half-maximal activity (AC50) under setting [2] is 0.259 µM [rising, partial curve, poor fit].

As for `CC1(C)CC(N(CCc2ccccc2)Cc2ccccc2)CCO1` (centres undefined), the cell number change was -25.5%. The AC50 under setting [2] is 20.6 µM [falling, single point].

For `COCCOC(=O)c1c(C)oc2ccc(OC(=O)N(C)C)cc12`, the cell number change is 78.5%. The AC50 under setting [1] is 23.1 µM [rising, single point].

As to `CCN(CC)C(=O)c1ccc(NC(=O)c2c(C)noc2C)cc1`, the cell number change was found to be 10.6%. Moreover, under setting [1], the concentration at half-maximal activity (AC50) was 0.092 µM [falling, full curve, poor fit]. Under setting [2], the AC50 is 3.26 µM [falling, full curve].

On to `O=C(Cn1cnc2ccccc2c1=O)NCCC(=O)N1CCC2(CC1)OCCO2`, for which the cell number change is 5.57%.

As for `COC(=O)C1=C(c2ccc(OC(F)(F)F)cc2)C[C@@H]2CC[C@H]1N2C(=O)NC(C)C`, the cell number change was -5.78%. Also, the AC50 under setting [2] was 0.0058 µM [rising, full curve, poor fit].

Take `Cc1cccc(-n2c(/C=C/c3ccc([N+](=O)[O-])o3)nc3ccccc3c2=O)c1`: under setting [2], the AC50 is 7.31 µM [falling, partial curve, poor fit].

As to `COCCOC(=O)c1c(N)n(Cc2ccc(OC)cc2)c2nc3ccccc3nc12`, the cell number change is -3.64%.

Regarding `O=C(NCc1cccnc1)Nc1ccc([N+](=O)[O-])cc1`, the cell number change is 9.63%.

For the compound `CN1CCN(Cc2ccc(OC(F)(F)F)cc2)CC1`, the half-maximal activity concentration (AC50) under setting [1] is 0.366 µM [falling, partial curve, poor fit] and the AC50 under setting [2] is 25.9 µM [falling, partial curve, poor fit].

As to `Cc1cccc(N2C(=O)NC(=O)/C(=C\c3cccn3-c3ccc(Cl)cc3)C2=O)c1`, the cell number change is -25.4%. The AC50 under setting [2] was 16.4 µM [falling, single point].

For `C=C1C(=O)O[C@H]2C[C@@H](C)[C@@H]3C=CC(=O)[C@@]3(C)C[C@H]12`, the cell number change is -59.7%. For the same compound, under setting [1], the concentration at half-maximal activity (AC50) was 18.4 µM [falling, single point]. For the same compound, under setting [2], the AC50 is 18.4 µM [falling, partial curve].

Regarding `C1=C(c2ccccc2)CCNC1`, the cell number change worked out at 8.32%. The half-maximal activity concentration (AC50) under setting [2] was 0.0326 µM [rising, full curve, poor fit].

As for `CCOc1ccc2nc(N=Nc3c(O)[nH]c(=S)[nH]c3=O)sc2c1`, the cell number change was -9.23%. Under setting [1], the AC50 was 0.58 µM [rising, full curve]. Also, the AC50 under setting [2] was 0.651 µM [rising, full curve].

For `O=C1CC(=O)N(c2cccc(Br)c2)C(=O)N1`, the cell number change was -31.9%. Moreover, the AC50 under setting [2] was 0.58 µM [rising, single point].

Regarding `CCOC(=O)C1CN(C)CCC1=O` (centres undefined), the cell number change came to 10.1%. In addition, the AC50 under setting [2] is 32.6 µM [falling, partial curve, poor fit].

`CC1=CC(=O)C2=C(C)C[C@H](O)[C@@H]3[C@H](OC(=O)[C@H]3C)[C@@H]12`: the cell number change was 15.9%. Besides, the AC50 under setting [2] is 1.64 µM [rising, partial curve].

In the case of `COC(=O)C1=C(c2ccc(C(C)=O)cc2)C[C@@H]2CC[C@H]1N2C(=O)NCc1ccc(F)cc1`, the cell number change is -13.9%. Also, the AC50 under setting [2] was 0.164 µM [rising, full curve, poor fit].

As to `COc1cccc(N=Nc2c(O)[nH]c(=S)[nH]c2=O)c1`, the cell number change is -8.39%. Besides, the half-maximal activity concentration (AC50) under setting [2] is 2.06 µM [falling, partial curve, poor fit].

Turning to `COC(=O)C1=C(c2cccc(OCc3ccccc3)c2)C[C@@H]2CC[C@H]1N2C(=O)NCc1cc(C)oc1C(F)(F)F`, the AC50 under setting [1] was 0.146 µM [falling, full curve, poor fit].

As to `Cc1cc(C=C2C(=O)N(C)C(=S)N(C)C2=O)c(C)n1C1CCCC1`, the cell number change was 14.8%. Further, the AC50 under setting [1] was 0.411 µM [falling, full curve, poor fit]. Besides, the AC50 under setting [2] is 6.51 µM [falling, single point].

As to `COC(=O)C1=C(c2ccc(Cl)c(C(F)(F)F)c2)C[C@@H]2CC[C@H]1N2C(=O)NCCOc1ccccc1`, the cell number change was -45.4%. Further, the AC50 under setting [1] was 20.6 µM [falling, single point]. In addition, the AC50 under setting [2] is 0.731 µM [falling, full curve].

For `CCC(C)C12CN3CCN(CC(C)(C3)C1=O)C2` (centres undefined), the cell number change was determined as 39.4%. Moreover, the concentration at half-maximal activity (AC50) under setting [1] is 20.6 µM [rising, single point].

On to `CCC1(c2cccc(O)c2)CCCCN(C)C1` (centres undefined), for which the cell number change was -31.6%. Also, the AC50 under setting [1] was 3.66 µM [falling, partial curve, poor fit]. Further, the concentration at half-maximal activity (AC50) under setting [2] was 0.461 µM [falling, full curve].

In the case of `O=c1cccc2n1CC1CC2CN(C(c2cccc(F)c2)c2sc3ncnn3c2O)C1` (centres undefined), the cell number change was -63.7%. Under setting [1], the AC50 was 18.4 µM [falling, single point].

For the compound `Cc1oc(-c2ccccc2Cl)nc1CN1C(=O)CN=C(c2ccccc2)c2ccccc21`, the cell number change was 31%. Also, the concentration at half-maximal activity (AC50) under setting [1] is 2.31 µM [rising, full curve, poor fit].

On to `C1CCC(NC2CCCCC2)CC1`, for which the cell number change worked out at 15.8%. For the same compound, under setting [2], the AC50 is 4.61 µM [rising, single point].

On to `COC(=O)c1ccccc1OP(=O)(c1cccc([N+](=O)[O-])c1)c1cccc([N+](=O)[O-])c1`, for which the cell number change worked out at 5.29%. The half-maximal activity concentration (AC50) under setting [2] is 6.51 µM [falling, single point].

For the compound `CC(C)N1C(=O)NC(=O)C2(Cc3cc([N+](=O)[O-])ccc3N(C)C2c2ccccc2)C1=O` (centres undefined), the cell number change is -17.6%. In addition, under setting [2], the concentration at half-maximal activity (AC50) was 23.1 µM [falling, single point].

With `O=C1NS(=O)c2cc([N+](=O)[O-])cc([N+](=O)[O-])c21` (centres undefined), the AC50 runs as follows: under setting [1], 0.146 µM [falling, full curve, poor fit]; under setting [2], 2.31 µM [falling, single point].

For the compound `C=CCn1c(O)c(C=Nc2ccc(OC)cc2C)c(=O)[nH]c1=O`, the cell number change was -30.6%.

Take `Cc1nc2ccccc2c(=O)n1-c1ccccc1[N+](=O)[O-]`: the cell number change is -4.42%. In addition, the AC50 under setting [2] was 0.82 µM [falling, single point].

In the case of `CCOP(=O)(C#CC(C)(C)C)C(C)(O)c1ccccc1` (centres undefined), the cell number change was determined as 3.91%. In addition, the AC50 under setting [2] was 3.26 µM [falling, partial curve].

Consider `COC(=O)C1=C(c2ccc(F)cc2OCc2ccccc2)C[C@@H]2CC[C@H]1N2C(=O)NCc1ccc(F)cc1`, for which the cell number change worked out at 6.14%. Also, the AC50 under setting [2] is 2.91 µM [falling, single point].

As to `COc1ccc(CCNCc2ccncc2)cc1`, the cell number change is -48.4%. In addition, the AC50 under setting [1] is 8.2 µM [falling, partial curve, poor fit]. For the same compound, under setting [2], the AC50 is 0.13 µM [falling, full curve, poor fit].

Regarding `Cc1ccc(C(O)(c2ccc(C)c(C)c2)C2CN3CCC2CC3)cc1C` (centres undefined), the AC50 runs as follows: under setting [1], 0.13 µM [falling, full curve, poor fit]; under setting [2], 1.03 µM [falling, full curve, poor fit].

On to `C=C[C@]1(C)C[C@H]1[C@H](NP(=O)(c1ccccc1)c1ccccc1)c1ccccc1`, for which the AC50 under setting [1] was 6.51 µM [falling, single point].

For the compound `CC(C)C1(C)N=C(c2ncccc2C(=O)O)NC1=O` (centres undefined), the cell number change came to 5.83%.

Turning to `COc1ccc(C(=O)C2CCCN(Cc3ccc(F)cc3F)C2)cc1F` (centres undefined), the cell number change was -0.343%.

For `C=CCN1C(=O)/C(=C/c2ccc(N3CCOCC3)o2)C(=O)NC1=S`, the AC50 under setting [2] was 23.1 µM [falling, single point].

As to `O=C1C2CCN(CC2)C1Cc1ccccc1O` (centres undefined), the cell number change is 6.63%.

In the case of `Cc1ccc(N2C(=O)NC(=O)/C(=C\c3ccoc3)C2=O)cc1`, the cell number change was -39.5%. The AC50 under setting [1] was 32.6 µM [falling, single point]. For the same compound, the AC50 under setting [2] is 16.4 µM [falling, single point].

Turning to `CN(C)C(=O)Oc1ccc(-c2nnco2)cc1`, the AC50 under setting [2] is 2.31 µM [rising, single point].

For the compound `CCC(=NCCCO)c1c(O)n(-c2ccc(OC)cc2)c(=O)[nH]c1=O`, the cell number change worked out at 3.56%. In addition, the AC50 under setting [2] was 5.8 µM [falling, single point].

With `COc1ccc(N2C(=O)CC(=O)NC2=O)cc1`, the cell number change was -15.6%. Further, under setting [1], the half-maximal activity concentration (AC50) was 0.00461 µM [falling, full curve, poor fit]. Moreover, under setting [2], the AC50 is 0.82 µM [falling, full curve].

Regarding `COc1ccc(-c2nc3ccccc3c(=O)n2-c2ccc(OC)cc2)cc1`, the cell number change was -9.67%. For the same compound, the AC50 under setting [2] is 29.1 µM [falling, single point].

For the compound `Cn1c(NN=O)nc2ccccc21`, the cell number change was -63.4%. The half-maximal activity concentration (AC50) under setting [1] is 18.4 µM [falling, single point]. In addition, the AC50 under setting [2] was 18.4 µM [falling, partial curve].

Turning to `O=c1[nH]c(=O)n(-c2cccc3ccccc23)c(O)c1C=NCCCn1ccnc1`, the cell number change was determined as 35.5%. In addition, the half-maximal activity concentration (AC50) under setting [1] was 4.61 µM [rising, partial curve, poor fit]. Further, the half-maximal activity concentration (AC50) under setting [2] was 4.11 µM [falling, partial curve].

Take `c1ccc(C2CC3CC4(CCCC4)N2O3)cc1` (centres undefined): the cell number change is -11.8%. The AC50 under setting [2] is 0.231 µM [falling, full curve, poor fit].

Consider `NCC(CC(=O)O)C1CCCCC1` (centres undefined), for which the cell number change was -14.6%. In addition, the AC50 under setting [2] was 2.59 µM [falling, full curve, poor fit].

Regarding `CN1CC[C@@]23CCCC[C@@H]2[C@@H]1Cc1ccc(O)cc13`, the cell number change was -4.11%. The AC50 under setting [1] is 6.51 µM [falling, single point]. The AC50 under setting [2] is 7.31 µM [falling, single point].

(Values after PubChem BioAssay AID2685 (National Center for Advancing Translational Sciences (NCATS), 2010).)
